The results in this text go back to the supplement of paper PMC12067093, “Discovery and optimisation of a covalent ligand for TRIM25 and its application to targeted protein ubiquitination” (Chemical Science, 2025).

Amino acid sequences for entries named in this document (tags omitted). A change or cut given only in a name is not applied to a line headed by its entry.
UniProt Q9P2J5: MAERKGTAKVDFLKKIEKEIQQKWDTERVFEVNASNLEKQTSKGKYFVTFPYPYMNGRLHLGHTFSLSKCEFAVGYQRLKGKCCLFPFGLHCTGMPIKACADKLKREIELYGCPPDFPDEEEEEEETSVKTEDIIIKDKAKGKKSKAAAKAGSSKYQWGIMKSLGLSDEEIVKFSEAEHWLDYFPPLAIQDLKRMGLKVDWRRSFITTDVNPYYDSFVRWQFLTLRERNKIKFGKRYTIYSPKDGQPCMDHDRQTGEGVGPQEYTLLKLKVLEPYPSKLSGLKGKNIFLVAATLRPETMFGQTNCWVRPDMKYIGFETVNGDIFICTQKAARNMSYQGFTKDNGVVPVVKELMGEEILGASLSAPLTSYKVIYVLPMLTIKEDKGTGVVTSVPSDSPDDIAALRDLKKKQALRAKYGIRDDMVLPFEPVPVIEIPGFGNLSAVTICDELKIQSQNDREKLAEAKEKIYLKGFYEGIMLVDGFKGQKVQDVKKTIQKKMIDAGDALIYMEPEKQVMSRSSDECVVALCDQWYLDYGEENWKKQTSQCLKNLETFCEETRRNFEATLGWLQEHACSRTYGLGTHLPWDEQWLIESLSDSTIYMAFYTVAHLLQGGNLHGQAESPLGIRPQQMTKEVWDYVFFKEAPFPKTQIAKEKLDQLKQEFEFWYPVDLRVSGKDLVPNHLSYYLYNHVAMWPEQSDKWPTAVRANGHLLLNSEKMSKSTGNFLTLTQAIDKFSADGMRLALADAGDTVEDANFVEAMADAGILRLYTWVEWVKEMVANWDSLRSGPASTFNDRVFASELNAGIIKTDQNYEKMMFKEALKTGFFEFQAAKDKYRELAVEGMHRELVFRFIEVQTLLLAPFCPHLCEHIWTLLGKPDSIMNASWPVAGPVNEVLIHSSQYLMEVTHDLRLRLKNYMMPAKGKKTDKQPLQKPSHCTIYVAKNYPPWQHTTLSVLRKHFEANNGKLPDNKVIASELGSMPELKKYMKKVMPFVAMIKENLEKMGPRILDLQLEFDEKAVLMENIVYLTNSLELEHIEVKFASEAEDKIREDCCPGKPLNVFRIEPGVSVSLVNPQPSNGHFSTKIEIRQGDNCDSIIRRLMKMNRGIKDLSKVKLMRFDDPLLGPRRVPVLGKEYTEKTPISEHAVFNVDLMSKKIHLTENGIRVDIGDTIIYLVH
UniProt Q96EM0: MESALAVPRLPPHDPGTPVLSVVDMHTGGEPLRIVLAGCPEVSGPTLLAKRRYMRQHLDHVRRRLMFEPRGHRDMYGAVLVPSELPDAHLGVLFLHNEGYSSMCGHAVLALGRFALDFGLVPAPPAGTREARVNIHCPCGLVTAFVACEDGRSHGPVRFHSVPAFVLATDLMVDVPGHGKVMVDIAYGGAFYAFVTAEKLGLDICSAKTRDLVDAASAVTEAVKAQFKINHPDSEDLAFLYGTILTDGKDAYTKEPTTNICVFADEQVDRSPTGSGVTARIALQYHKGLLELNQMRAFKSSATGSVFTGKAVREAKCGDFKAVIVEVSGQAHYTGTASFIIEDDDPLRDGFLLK
UniProt Q9Y4W2: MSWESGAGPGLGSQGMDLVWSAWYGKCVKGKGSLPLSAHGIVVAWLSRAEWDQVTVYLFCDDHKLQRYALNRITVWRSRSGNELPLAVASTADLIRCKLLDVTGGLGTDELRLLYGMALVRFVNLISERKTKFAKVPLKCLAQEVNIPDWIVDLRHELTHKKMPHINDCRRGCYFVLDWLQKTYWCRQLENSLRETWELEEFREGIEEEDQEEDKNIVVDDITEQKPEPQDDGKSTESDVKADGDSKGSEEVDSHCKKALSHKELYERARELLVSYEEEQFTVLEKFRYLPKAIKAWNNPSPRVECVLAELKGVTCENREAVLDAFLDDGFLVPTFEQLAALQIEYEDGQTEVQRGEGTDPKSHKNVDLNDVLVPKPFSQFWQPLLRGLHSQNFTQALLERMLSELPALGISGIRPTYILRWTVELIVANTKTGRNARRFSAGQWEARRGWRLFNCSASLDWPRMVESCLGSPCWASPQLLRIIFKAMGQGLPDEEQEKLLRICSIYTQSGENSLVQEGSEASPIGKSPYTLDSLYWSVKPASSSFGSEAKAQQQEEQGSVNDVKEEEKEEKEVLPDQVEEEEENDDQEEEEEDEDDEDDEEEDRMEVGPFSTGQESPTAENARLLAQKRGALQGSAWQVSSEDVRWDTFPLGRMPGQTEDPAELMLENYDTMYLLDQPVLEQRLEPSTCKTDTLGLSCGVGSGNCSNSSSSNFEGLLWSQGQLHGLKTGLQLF
UniProt Q8TBB5: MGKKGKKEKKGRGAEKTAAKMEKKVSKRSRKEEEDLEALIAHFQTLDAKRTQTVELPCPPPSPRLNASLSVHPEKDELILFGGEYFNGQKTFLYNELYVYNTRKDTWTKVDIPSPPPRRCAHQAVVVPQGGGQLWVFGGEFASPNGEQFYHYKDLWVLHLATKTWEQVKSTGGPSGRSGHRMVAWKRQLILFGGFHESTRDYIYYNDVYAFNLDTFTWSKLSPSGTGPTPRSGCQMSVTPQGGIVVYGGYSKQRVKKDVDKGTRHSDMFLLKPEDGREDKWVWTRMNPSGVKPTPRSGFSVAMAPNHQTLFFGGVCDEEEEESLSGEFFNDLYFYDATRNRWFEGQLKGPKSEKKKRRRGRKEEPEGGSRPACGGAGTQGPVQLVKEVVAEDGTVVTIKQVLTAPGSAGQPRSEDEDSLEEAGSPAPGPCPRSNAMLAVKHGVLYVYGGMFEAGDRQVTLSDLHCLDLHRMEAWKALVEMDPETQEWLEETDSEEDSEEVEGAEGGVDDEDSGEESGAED
UniProt P50748: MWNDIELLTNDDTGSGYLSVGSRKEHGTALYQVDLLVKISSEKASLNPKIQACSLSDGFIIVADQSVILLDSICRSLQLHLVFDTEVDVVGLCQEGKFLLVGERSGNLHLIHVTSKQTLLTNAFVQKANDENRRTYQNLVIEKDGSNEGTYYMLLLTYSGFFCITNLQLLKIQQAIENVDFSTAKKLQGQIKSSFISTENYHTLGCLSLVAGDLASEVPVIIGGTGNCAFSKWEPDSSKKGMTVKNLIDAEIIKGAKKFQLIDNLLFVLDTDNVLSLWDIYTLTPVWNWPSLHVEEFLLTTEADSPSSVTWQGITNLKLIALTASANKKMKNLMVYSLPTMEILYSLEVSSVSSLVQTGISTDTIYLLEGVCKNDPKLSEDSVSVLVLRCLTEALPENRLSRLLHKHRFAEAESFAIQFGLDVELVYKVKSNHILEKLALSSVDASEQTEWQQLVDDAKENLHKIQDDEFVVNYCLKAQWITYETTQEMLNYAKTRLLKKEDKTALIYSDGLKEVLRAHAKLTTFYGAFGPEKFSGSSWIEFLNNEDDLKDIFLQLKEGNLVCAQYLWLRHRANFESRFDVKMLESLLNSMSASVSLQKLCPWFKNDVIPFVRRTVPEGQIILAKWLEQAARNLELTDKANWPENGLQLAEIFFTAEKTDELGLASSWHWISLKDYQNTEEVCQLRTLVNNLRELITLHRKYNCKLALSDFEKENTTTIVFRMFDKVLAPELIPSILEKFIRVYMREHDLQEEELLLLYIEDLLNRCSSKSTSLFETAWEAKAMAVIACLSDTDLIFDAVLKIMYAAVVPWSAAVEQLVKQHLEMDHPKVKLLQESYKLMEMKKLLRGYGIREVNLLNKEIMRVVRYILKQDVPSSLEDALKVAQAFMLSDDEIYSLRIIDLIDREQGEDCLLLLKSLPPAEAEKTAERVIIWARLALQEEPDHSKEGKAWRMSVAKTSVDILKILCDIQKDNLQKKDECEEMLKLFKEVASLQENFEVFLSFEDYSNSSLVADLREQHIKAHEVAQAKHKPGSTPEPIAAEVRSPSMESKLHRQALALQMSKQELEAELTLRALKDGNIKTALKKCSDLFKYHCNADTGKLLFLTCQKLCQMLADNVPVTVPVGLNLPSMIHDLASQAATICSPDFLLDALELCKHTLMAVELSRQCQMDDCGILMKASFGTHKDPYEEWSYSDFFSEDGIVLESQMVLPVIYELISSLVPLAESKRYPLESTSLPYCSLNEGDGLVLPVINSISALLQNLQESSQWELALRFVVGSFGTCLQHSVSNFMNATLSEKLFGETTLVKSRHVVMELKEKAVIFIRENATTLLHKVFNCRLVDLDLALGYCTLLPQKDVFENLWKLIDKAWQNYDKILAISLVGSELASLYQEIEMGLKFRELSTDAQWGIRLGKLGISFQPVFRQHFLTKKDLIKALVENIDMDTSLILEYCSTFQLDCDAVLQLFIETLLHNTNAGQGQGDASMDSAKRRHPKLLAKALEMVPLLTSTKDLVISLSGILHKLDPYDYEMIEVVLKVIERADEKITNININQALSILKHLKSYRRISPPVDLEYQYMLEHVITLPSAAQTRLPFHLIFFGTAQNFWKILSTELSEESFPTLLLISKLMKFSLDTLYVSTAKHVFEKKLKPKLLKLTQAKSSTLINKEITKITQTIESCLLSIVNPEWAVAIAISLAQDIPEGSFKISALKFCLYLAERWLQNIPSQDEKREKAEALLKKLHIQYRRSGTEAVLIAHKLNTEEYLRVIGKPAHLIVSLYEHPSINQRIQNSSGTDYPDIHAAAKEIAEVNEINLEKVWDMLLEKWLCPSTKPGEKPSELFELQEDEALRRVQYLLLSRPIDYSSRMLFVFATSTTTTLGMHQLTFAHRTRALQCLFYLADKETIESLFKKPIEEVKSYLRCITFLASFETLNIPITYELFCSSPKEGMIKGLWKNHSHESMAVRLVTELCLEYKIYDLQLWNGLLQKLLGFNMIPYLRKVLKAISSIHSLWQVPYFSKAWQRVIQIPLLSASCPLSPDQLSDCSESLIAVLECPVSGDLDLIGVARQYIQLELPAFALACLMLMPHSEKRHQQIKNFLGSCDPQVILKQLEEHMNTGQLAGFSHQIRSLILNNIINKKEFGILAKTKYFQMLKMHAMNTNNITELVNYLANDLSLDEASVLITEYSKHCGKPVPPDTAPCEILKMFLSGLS
UniProt Q14657: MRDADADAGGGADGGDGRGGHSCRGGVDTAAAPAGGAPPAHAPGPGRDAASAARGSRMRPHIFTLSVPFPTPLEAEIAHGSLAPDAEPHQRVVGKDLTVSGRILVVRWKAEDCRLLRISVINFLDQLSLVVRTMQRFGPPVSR
UniProt P33176: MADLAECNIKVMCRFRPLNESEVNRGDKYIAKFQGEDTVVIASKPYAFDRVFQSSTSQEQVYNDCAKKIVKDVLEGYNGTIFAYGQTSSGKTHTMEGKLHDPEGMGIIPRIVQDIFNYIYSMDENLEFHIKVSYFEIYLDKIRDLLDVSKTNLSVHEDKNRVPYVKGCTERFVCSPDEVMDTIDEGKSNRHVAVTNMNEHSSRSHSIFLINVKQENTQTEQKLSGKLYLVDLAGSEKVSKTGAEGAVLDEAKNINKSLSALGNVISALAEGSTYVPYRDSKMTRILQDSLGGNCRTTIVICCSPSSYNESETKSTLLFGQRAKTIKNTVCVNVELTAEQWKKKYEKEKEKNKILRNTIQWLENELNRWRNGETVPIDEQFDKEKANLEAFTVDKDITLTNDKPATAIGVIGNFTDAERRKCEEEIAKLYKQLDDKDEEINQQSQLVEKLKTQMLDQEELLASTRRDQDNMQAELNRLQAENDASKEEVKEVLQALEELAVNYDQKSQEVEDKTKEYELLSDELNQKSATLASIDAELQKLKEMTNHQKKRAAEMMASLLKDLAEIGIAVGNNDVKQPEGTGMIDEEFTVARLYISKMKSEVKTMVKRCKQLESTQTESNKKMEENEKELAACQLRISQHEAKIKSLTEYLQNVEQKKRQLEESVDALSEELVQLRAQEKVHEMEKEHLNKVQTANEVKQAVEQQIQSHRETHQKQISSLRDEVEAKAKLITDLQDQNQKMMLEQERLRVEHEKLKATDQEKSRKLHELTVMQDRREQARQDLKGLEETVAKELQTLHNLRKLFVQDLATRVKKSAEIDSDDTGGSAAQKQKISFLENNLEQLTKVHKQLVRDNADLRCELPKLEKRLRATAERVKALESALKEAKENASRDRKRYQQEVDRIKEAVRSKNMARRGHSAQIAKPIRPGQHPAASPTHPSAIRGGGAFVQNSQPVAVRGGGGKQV
UniProt Q14847: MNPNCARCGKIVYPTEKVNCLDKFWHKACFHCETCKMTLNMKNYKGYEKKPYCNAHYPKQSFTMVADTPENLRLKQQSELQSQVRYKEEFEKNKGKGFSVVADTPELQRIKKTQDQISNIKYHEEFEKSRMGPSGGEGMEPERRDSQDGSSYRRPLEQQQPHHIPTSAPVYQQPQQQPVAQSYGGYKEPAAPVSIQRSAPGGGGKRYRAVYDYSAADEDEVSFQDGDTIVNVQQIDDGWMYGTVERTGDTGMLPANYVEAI

The list shows a part of the results.
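Also: competitive profiling in live THP-1 cells: cysteine peptides tagged with an iodoacetamide desthiobiotin (IA-DTB) probe, intensity after compound treatment relative to DMSO-treated cells.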

Compound in the assay: Cc1cc(ccc1-c1ccccc1)C(=O)N1CCCN(CC1)C(=O)CCl [compound 10]
In words: probe-labelled cysteine peptide fold change vs DMSO (competition) (log2 fold change); higher = less target engagement (more negative = stronger competition). To be noted: 50 µM; THP-1; incubation time: 4 h.
As to “LARS_Q9P2J5_554_NLETFCEETRR (UniProt Q9P2J5)”, the “probe-labelled cysteine peptide fold change” value was -0.201.
For “LDHA_P00338_293_DDVFLSVPCILGQNGISDLVK (UniProt P00338)”, the “probe-labelled cysteine peptide fold change” value was 0.529.
Take “L3HYPDH_Q96EM0_39_IVLAGCPEVSGPTLLAK (UniProt Q96EM0)”: the “probe-labelled cysteine peptide fold change” value amounted to 0.075.
The same measure for “KMT5C_Q86Y97_231_NEHCECHTCER (UniProt Q86Y97)”: 0.831; for “LARS_Q9P2J5_936_PSHCTIYVAK (UniProt Q9P2J5)”: 0.0707; for “LEMD2_Q8NC56_355_VVCLESAHPR (UniProt Q8NC56)”: 0.089.
For the target “KRR1_Q13601_102_ALNEHHVNATLDLIEGSMTVCTTK (UniProt Q13601)”, the “probe-labelled cysteine peptide fold change” value is 0.243.
The same measure for “KMT2D_O14686_414_EPGPLQCEAK (UniProt O14686)”: -0.348; for “LAS1L_Q9Y4W2_456_LFNCSASLDWPR (UniProt Q9Y4W2)”: -0.529; for “KMT2A_Q03164_1194_CQNLQWMPSK (UniProt Q03164)”: -0.0648.
The same measure for “KPNA4_O00629_417_KDQVAYLIQQNVIPPFCNLLTVK (UniProt O00629)”: -0.054.
Next, “KLHL7_Q8IXQ5_259_TVQAEPLIQDNPECLK (UniProt Q8IXQ5)”: -0.0285; “KPNA6_O60684_253_VSPCLPVLSR (UniProt O60684)”: -0.236; “KLHDC4_Q8TBB5_465_QVTLSDLHCLDLHR (UniProt Q8TBB5)”: -0.0653.
Take “KLHDC4_Q8TBB5_58_TQTVELPCPPPSPR (UniProt Q8TBB5)”: the “probe-labelled cysteine peptide fold change” value turned out to be 0.0378.
The same measure for “L3HYPDH_Q96EM0_205_LGLDICSAK (UniProt Q96EM0)”: -0.0398.
The same measure for “KNTC1_P50748_390_CLTEALPENR (UniProt P50748)”: 0.0608.
The same measure for “KIF2C_Q99661_473_SHACFQIILR (UniProt Q99661)”: 0.0791; for “LARS_Q9P2J5_84_CCLFPFGLHCTGMPIK (UniProt Q9P2J5)”: -0.198; for “LAGE3_Q14657_113_WKAEDCR (UniProt Q14657)”: 0.0737.
In the case of “LDLR_P01130_377+379_CQCEEGFQLDPHTK (UniProt P01130)”, the “probe-labelled cysteine peptide fold change” value was found to be 0.243.
The same measure for “LANCL2_Q9NS86_248_CPLLYQWHR (UniProt Q9NS86)”: 0.026; for “KPNB1_Q14974_228_HFIMQVVCEATQCPDTR (UniProt Q14974)”: 0.14.
Next, “LAS1L_Q9Y4W2_306_VECVLAELK (UniProt Q9Y4W2)”: -0.525; “LCMT1_Q9UIC8_250_QCDLAGVETCK (UniProt Q9UIC8)”: -0.147.
Next, “L2HGDH_Q9H9P8_272_ISELSGCTPDPR (UniProt Q9H9P8)”: -0.0744; “LARS_Q9P2J5_573_RNFEATLGWLQEHACSR (UniProt Q9P2J5)”: 0.208; “KIF5B_P33176_302_TTIVICCSPSSYNESETK (UniProt P33176)”: -0.0213.
In the case of “L3MBTL2_Q969R5_554_LICVATVK (UniProt Q969R5)”, the “probe-labelled cysteine peptide fold change” value was determined as 0.502.
The same measure for “KRIT1_O00522_297_SACEGDSELLSR (UniProt O00522)”: -0.179; for “LASP1_Q14847_29+32_ACFHCETCK (UniProt Q14847)”: -0.283.
The same measure for “KMT2B_Q9UMN6_1268_HLLECER (UniProt Q9UMN6)”: -0.143; for “KMT2C_Q8NEZ4_417_GYHTFCLQPVMK (UniProt Q8NEZ4)”: -0.0801.
The same measure for “LDHD_Q86WU2_462_ALALHGTCTGEHGIGMGK (UniProt Q86WU2)”: -0.116; for “KNTC1_P50748_980_KDECEEMLK (UniProt P50748)”: 0.00532.
In the case of “KLHDC4_Q8TBB5_58_RTQTVELPCPPPSPR (UniProt Q8TBB5)”, the “probe-labelled cysteine peptide fold change” value amounted to 0.0225.
